Source: PubChem BioAssay AID1625 (Sanford-Burnham Center for Chemical Genomics, 2009)
“And” between values parts separate entries of the source, which are not always exact repeats. Identical values can stand only once. This is one part of the list.

Assay: up-regulation of insulin promoter-GFP reporter – imaging, high-content screening, mouse beta cells (AID 1625);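 further: total cells summed across four imaged fields per well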
Details: MIN6 insulin promoter-GFP reporter, measured here: cytotoxicity, nuclei count, at 5 µM
In the case of CP(=O)(OCCOc1ccccc1)OCCOc1ccccc1, the cell count was 1260 cells. With Nc1cccc2ccc([As](=O)(O)O)cc12 the cell count was 1380 cells. With CCN(N=Nc1nonc1N)c1nonc1N the cell count was 1440 cells. Cc1nc2ccc3ccccc3c2o1.O=[N+]([O-])c1cc([N+](=O)[O-])c(O)c([N+](=O)[O-])c1 showed a cell count of 1330 cells. In the case of COc1ccc(OP(C)(=O)Nc2ccccc2Br)cc1 (centres undefined), the cell count was 1540 cells. For COc1ccccc1OP(C)(=O)Nc1ccc(C)c(C)c1 (centres undefined), the cell count was 1130 cells. Cc1ccc(NP(=O)(Oc2ccccc2F)Oc2ccccc2F)nc1 gave a cell count of 978 cells. Cc1cc(SC(NC(=O)c2ccc(F)cc2)C(Cl)(Cl)Cl)ncn1 (centres undefined) showed a cell count of 1480 cells. For CCOP(=O)(Nc1ccccc1)OCC, the cell count was 716 cells and 1360 cells. For O=P(Nc1nc2ccc(Cl)cc2s1)(c1ccccc1)c1ccccc1, the cell count was 1120 cells. Cc1cc(C)cc(OP(C)(=O)Nc2cccc(C(F)(F)F)c2)c1 (centres undefined) showed a cell count of 1560 cells. CC(=O)Nc1ccc([As](=O)(O)O)cc1 gave a cell count of 1420 cells. Work on O=C(O)c1ccccc1[As](=O)(O)O yielded a cell count of 1310 cells. Work on CCc1ccc(OP(C)(=O)O)cc1 yielded a cell count of 1590 cells. COc1ccccc1OP(C)(=O)Nc1ccc(C)cc1C (centres undefined) showed a cell count of 1490 cells. Work on CP(=O)(Nc1ccccn1)Oc1ccccc1 (centres undefined) yielded a cell count of 1240 cells. For Cc1c2non([O-])c-2c(C)[n+](=O)[n+]1[O-], the cell count was 1250 cells. Oc1ccccc1CNc1ccccn1 gave a cell count of 932 cells. Cc1c(NP(C)(=O)Oc2ccc(C(C)C)cc2)c(=O)n(-c2ccccc2)n1C (centres undefined) showed a cell count of 1350 cells. For O=[N+]([O-])c1cc([N+](=O)[O-])c(Nc2ccccn2)c([N+](=O)[O-])c1, the cell count was 1230 cells. In the case of CN(C)CCOC(=O)C(O)(c1ccccc1)C1CCCC1 (centres undefined), the cell count was 1030 cells. In the case of Clc1ccc(Cl)c(NC2=NCC(CBr)S2)c1 (centres undefined), the cell count was 1310 cells. For Cc1ccc(OP(=O)(Nc2nccs2)Oc2ccc(C)cc2)cc1, the cell count was 1070 cells. COc1ccccc1OP(=O)(Nc1ccc(C)cn1)Oc1ccccc1OC gave a cell count of 1680 cells. COc1ccc(OP(C)(=O)Nc2ccccn2)cc1 (centres undefined) showed a cell count of 827 cells. With Cc1ccc(N/C(=N/P(=O)(N2CCOCC2)N2CCOCC2)N2CCOCC2)cc1 the cell count was 1640 cells. Compound COc1ccccc1OP(C)(=O)Nc1ccc(Br)cc1 (centres undefined) has a cell count of 953 cells. NC(=O)c1cc([N+](=O)[O-])cc([N+](=O)[O-])c1N gave a cell count of 1170 cells. For CC(=O)Nc1ccc(Oc2c([N+](=O)[O-])cc([N+](=O)[O-])cc2[N+](=O)[O-])cc1, the cell count was 1270 cells. Work on CC(=O)Nc1ccc([As](=O)(O)O)c(O)c1 yielded a cell count of 1460 cells. With C[C@H]1OP(=O)(Oc2ccccc2)C[C@@H]2O[C@@H]21 (some centres undefined) the cell count was 1030 cells. C[C@@H]1C=CCP(=O)(Oc2ccccc2)O1 (some centres undefined) gave a cell count of 876 cells. For O=C(OCCN1CCN(CCOCc2ccccc2)CC1)C(O)(c1ccccc1)c1ccccc1, the cell count was 1470 cells. O=C(OC1CN2CCC1CC2)c1ccc([N+](=O)[O-])cc1 (centres undefined) gave a cell count of 1350 cells. CC(C)c1ccc(OP(C)(=O)Nc2ccc(SC(F)(F)F)cc2)cc1 (centres undefined) showed a cell count of 1260 cells. Work on CC(C)(C)C(=O)NC(Sc1ccccc1)C(Cl)(Cl)Cl (centres undefined) yielded a cell count of 1500 cells. In the case of CP(=O)(Nc1ccccc1F)Oc1ccccc1 (centres undefined), the cell count was 1230 cells. CCOc1ccc(C2=NCC(CBr)S2)cc1 (centres undefined) showed a cell count of 1450 cells. With O=P1(Nc2nc3ccc(Cl)cc3s2)COc2ccccc2O1 (centres undefined) the cell count was 881 cells. CCCCCOc1ccc(NP(C)(=O)Oc2ccc(Cl)cc2Cl)cc1 (centres undefined) showed a cell count of 1160 cells. With CN(C)C(=O)Oc1noc2ccccc12 the cell count was 987 cells. Cc1ccccc1OP(=O)(Nc1ccccn1)Oc1ccccc1C showed a cell count of 1040 cells. Work on CP(=O)(Nc1ccccc1)Oc1ccc(F)cc1 (centres undefined) yielded a cell count of 1550 cells. Cc1ccc(OP(=O)(Nc2ccccn2)Oc2ccc(C)cc2)cc1 showed a cell count of 1240 cells. CC(=O)NC(SC(=S)N(CC(C)C)CC(C)C)C(Cl)(Cl)Cl (centres undefined) gave a cell count of 1230 cells. COC(=O)c1cc2c(s1)N=C(c1ccccc1)N(C)P2(=O)N1CCOCC1 (centres undefined) showed a cell count of 1630 cells. COc1ccc(OP(C)(=O)Nc2ccc(SC(F)(F)F)cc2)cc1 (centres undefined) showed a cell count of 1180 cells. CCOC(=O)c1ccc(NP(C)(=O)Oc2ccc(F)cc2)cc1 (centres undefined) gave a cell count of 922 cells. For CCOC(=O)NC(Sc1ccccc1)C(Cl)(Cl)Cl (centres undefined), the cell count was 1620 cells. Cc1ccc(NP(=O)(Oc2cccc(C)c2)Oc2cccc(C)c2)nc1 showed a cell count of 1160 cells. With c1ccc(-c2nn[nH]n2)c(-c2nn[nH]n2)c1 the cell count was 1430 cells. O=C(NC1CCS(=O)(=O)C1)NP(=S)(Oc1ccccc1)Oc1ccccc1 (centres undefined) gave a cell count of 1180 cells. CCNC(=S)/N=C(\N)N[N+](=O)[O-] showed a cell count of 1480 cells. Compound O=C(OC1CN2CCC1CC2)c1cccc(Cl)c1 (centres undefined) has a cell count of 1090 cells. With C(Cc1nn[nH]n1)Cc1nn[nH]n1 the cell count was 1160 cells. For Nc1ccc([As](=O)(O)c2ccc([N+](=O)[O-])cc2)cc1, the cell count was 1300 cells. Compound O=[N+]([O-])c1cc([N+](=O)[O-])c(NCC2CCS(=O)(=O)C2)c([N+](=O)[O-])c1 (centres undefined) has a cell count of 1130 cells. Cc1cc(-c2cccc3ccccc23)c(C)cn1.O=[N+]([O-])c1cc([N+](=O)[O-])c(O)c([N+](=O)[O-])c1 gave a cell count of 1280 cells. Compound O=[As](O)(c1ccccc1)c1ccc(O)cc1 has a cell count of 1090 cells. In the case of O=[N+]([O-])c1ncn(CCn2cnc([N+](=O)[O-])n2)n1, the cell count was 1130 cells. Work on O=[N+]([O-])c1ccc(OP2(=O)COCCO2)cc1 (centres undefined) yielded a cell count of 1090 cells. With COc1ccc(NP(C)(=O)Oc2ccccc2OC)cc1 (centres undefined) the cell count was 1260 cells. Work on C[C@H]1OP(=O)(Oc2ccccc2)[C@H](O)[C@H](O)[C@H]1N=[N+]=[N-] (some centres undefined) yielded a cell count of 1170 cells. For O=P(Nc1nc2ccccc2s1)(c1ccccc1)c1ccccc1, the cell count was 1370 cells. CN(C)CCOC(=O)C(O)(c1ccccc1)C1CCCCC1 (centres undefined) gave a cell count of 1880 cells. With O=P(Nc1ccccn1)(c1ccc(Br)cc1)c1ccc(Br)cc1 the cell count was 1430 cells. Compound COc1ccc(OP(C)(=O)Nc2cccc(Br)c2)cc1 (centres undefined) has a cell count of 1500 cells. Cc1ccccc1NP(C)(=O)Nc1ccccc1C gave a cell count of 1090 cells. For CP(=O)(Nc1ccc2c(c1)OCCO2)Oc1ccccc1 (centres undefined), the cell count was 1090 cells. For c1nnnn1CCn1cnnn1, the cell count was 901 cells. Work on CCOP(C)(=S)SCC(=O)NC(C)(CC)C(=O)O (centres undefined) yielded a cell count of 1870 cells. Work on O=P(Nc1nccs1)(c1ccccc1)c1ccccc1 yielded a cell count of 1290 cells. With CC(C)C(=O)NC(Sc1ccccc1)C(Cl)(Cl)Cl (centres undefined) the cell count was 1540 cells. With CP(=O)(Nc1ccc(SC(F)(F)F)cc1)Oc1ccc(F)cc1 (centres undefined) the cell count was 1080 cells.
